Reference: PubChem BioAssay AID504804 (Drosophila RNAi Screening Center, 2011)
Aim: 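Fly genes whose loss lessens doxorubicin-driven cell death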 (primary screen). Cell system: Drosophila Kc cells. Knock-down reagent: long dsRNA against Drosophila genes, 0.5 µg dsRNA per well. Timing: 96 h (48 h knock-down, then 48 h drug). Treatment: doxorubicin 5 µg/ml for 48 h, added 48 h after dsRNA. Detection: 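Luminescent ATP counts per replicate, not normalised, reflecting viable cells after 48 h dsRNA knock-down followed by 48 h of 5 µg/ml doxorubicin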. Direction: raw ATP luminescence: higher = more viable cells, protection from doxorubicin. Hit rule: 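Active when both duplicate wells lie at least 2 SD above the plate mean and protection is confirmed by rescreening and independent dsRNAs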.
The screen tested about 19,000 reagents; shown is a random part of those with a known target gene and a result. In the full data, 47 (0.25%) are marked active. 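Signals are raw, not normalised; exact z-scores behind calls not deposited; actives needed confirmation, so some wells reaching 2 SD are inactive.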 Unmarked entries are inactive.

no.	Gene	dsRNA	raw ATP luminescence, replicate 1	raw ATP luminescence, replicate 2
1	CG3631	DRSC15503	62387	38957
2	Dnali1 (Dynein axonemal light intermediate chain 1)	DRSC16158	52180	28937
3	CG15152	DRSC02453	66720	82833
4	mgr (merry-go-round)	DRSC16099	63103	56770
5	RalGPS (Ral GEF with PH domain and SH3 binding motif)	DRSC06941	57097	58817
6	Muc26B (Mucin 26B)	DRSC02322	26190	30737
7	Pde9 (Phosphodiesterase 9)	DRSC19746	3.24e5	2.80e5
8	Pde9 (Phosphodiesterase 9)	DRSC19874	3.64e5	3.17e5
9	Pde9 (Phosphodiesterase 9)	DRSC19875	3.35e5	3.51e5
10	Pde9 (Phosphodiesterase 9)	DRSC19876	3.40e5	3.82e5
11	Ten-m (Tenascin major)	DRSC11664	78963	56570
12	Ten-m (Tenascin major)	DRSC11882	75407	68787
13	CG30050	DRSC05342	84803	89040
14	Plp (Pericentrin-like protein)	DRSC10006	65627	41487
15	Plp (Pericentrin-like protein)	DRSC10333	60793	43247
16	Plp (Pericentrin-like protein)	DRSC10700	27153	23717
17	yrt (yurt)	DRSC16559	46897	25030
18	ATPsynB (ATP synthase, subunit B)	DRSC09659	49660	39900
19	Mcm2 (Minichromosome maintenance 2)	DRSC16734	52163	58213
20	lncRNA:CR32553 (long non-coding RNA:CR32553)	DRSC19229	2.09e5	2.03e5
21	CG15580	DRSC12266	71053	81247
22	PK1-R (Pyrokinin 1 receptor)	DRSC16577	1.02e5	67910
23	SP (Sex Peptide)	DRSC09664	73590	75217
24	Reps (RALBP1 associated Eps domain containing)	DRSC02940	53983	81720
25	qtc (quick-to-court)	DRSC02364	1.15e5	75687
26	qtc (quick-to-court)	DRSC02365	23807	24997
27	Nop17l (Nop17 like)	DRSC06556	60857	58890
28	CG1636	DRSC18111	1.99e5	2.81e5
29	EMC2B (ER membrane protein complex subunit 2B)	DRSC15506	60480	52810
30	S1P (Site-1 protease)	DRSC11810	79977	70420
31	Ppox (Protoporphyrinogen oxidase)	DRSC17033	48840	58620
32	AlaRS (Alanyl-tRNA synthetase)	DRSC01851	1.17e5	83370
33	CG5543	DRSC04511	63020	79867
34	Irbp18 (Inverted repeat binding protein 18 kDa)	DRSC10612	91980	1.58e5
35	Bmcp	DRSC10808	53920	47270
36	CG10903	DRSC14281	57440	55270
37	Or85a (Odorant receptor 85a)	DRSC16764	65487	55200
38	Hel89B (Helicase 89B)	DRSC16700	56037	47767
39	pad (poils au dos)	DRSC14227	1.14e5	96110
40	slp1 (sloppy paired 1)	DRSC00835	96257	66477
41	Ing3 (Inhibitor of growth family, member 3)	DRSC20002	2.14e5	2.32e5
42	tau	DRSC14569	26420	29490
43	CG13314	DRSC09985	67007	82353
44	Cox10 (Cytochrome c oxidase assembly factor 10)	DRSC02804	80037	52227
45	Egm (Enigma)	DRSC07319	69153	60953
46	eEF1gamma (eukaryotic translation elongation factor 1 gamma)	DRSC16659	24140	24800
47	RpL15 (Ribosomal protein L15)	DRSC20963	76180	85680
48	CG15213	DRSC10213	84513	77427
49	CG32246	DRSC08115	1.04e5	1.08e5
50	CG8929	DRSC07298	58013	43340
51	CG4733	DRSC15634	57570	70860
52	CG1074	DRSC12143	21290	22560
53	CG3552	DRSC10370	96920	94547
54	Itgbn (Integrin betanu subunit)	DRSC03493	70953	93767
55	CG10005	DRSC14172	46090	48760
56	wb (wing blister)	DRSC01375	61620	68670
57	wb (wing blister)	DRSC03634	68487	78897
